These are yes or no findings as the source states them, for the method shown. Binding seen in cells or lysates may run through a third protein. Some binding calls cover weakened binding; strength is not graded here.
Biological target: Flag-VAMP3 (Vesicle-associated membrane protein-3) (UniProt Q15836)
Test: co-IP; AGS cells cotransfected with Flag-VAMP3 plasmid and Myc-LC3C or Myc-LC3B plasmid; RIPA lysis buffer (weak) with protease inhibitors, antibodies on Protein A/G magnetic beads, 4 °C overnight, washed with PBST; which protein was precipitated is not told

By UniProt entry, the sequences of proteins in these tests, tags left out. Residues count along the entry.
UniProt Q15836: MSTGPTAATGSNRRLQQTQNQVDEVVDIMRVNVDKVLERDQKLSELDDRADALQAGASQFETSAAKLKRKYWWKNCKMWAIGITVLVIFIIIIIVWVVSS
UniProt Q9BXW4, residues 1-126: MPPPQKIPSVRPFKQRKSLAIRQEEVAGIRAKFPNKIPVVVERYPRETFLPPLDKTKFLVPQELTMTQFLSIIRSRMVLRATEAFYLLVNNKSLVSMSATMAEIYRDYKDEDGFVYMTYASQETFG

binding: binds
Substance: Myc-LC3C (from UniProt Q9BXW4 1-126)
